Screening data

Source: PubChem BioAssay AID504749 (NCATS, 2011).

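Malaria parasite (P. falciparum) lines kept in red blood cells; parasite DNA is measured by SYBR Green fluorescence after lysis, 72 h after compound addition. Each compound was titrated across a series from about 0.000037 to 29 µM. The number is the fitted AC50, the concentration giving a half-maximal change in signal; a lower value means higher potency, whether the curve shows a decrease or an increase. Calls follow the curve class and fit quality: every row here is inconclusive, covering signal-raising curves and weak, poorly fitted, partial or highest-dose-only inhibition curves.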

Values are in µM. Every entry below has the call inconclusive. These entries are mostly ones the record files as inconclusive; other results of the assay are not listed here. A potency from a partial, single-point or poor curve is only a rough figure. Some entries filed as inconclusive have a full curve.

SMILES	condition	fitted potency (µM)	remark
CCCCCCCCCCCC(CC1OC(=O)C1CCCCCC)OC(=O)C(CC(C)C)NC=O (stereo not drawn)	CP269	0.4775	inhibitor, partial curve, poor fit
CCCCCCCCCCCC(CC1OC(=O)C1CCCCCC)OC(=O)C(CC(C)C)NC=O (stereo not drawn)	CP325	0.4256	inhibitor, partial curve, poor fit
CNCCC(Oc1ccccc1C)c1ccccc1 (stereo not drawn)	P93_24	14.13	inhibitor, partial curve, poor fit
CNCCC(Oc1ccccc1C)c1ccccc1 (stereo not drawn)	CP265	1.585	inhibitor, partial curve
CNCCC(Oc1ccccc1C)c1ccccc1 (stereo not drawn)	PC15	1.585	inhibitor, full curve, poor fit
CNCCC(Oc1ccccc1C)c1ccccc1 (stereo not drawn)	N140	12.59	inhibitor, partial curve
CNCCC(Oc1ccccc1C)c1ccccc1 (stereo not drawn)	7G8	11.22	inhibitor, partial curve
CCC[C@@H]1C[C@@H](C(=O)N[C@@H]([C@H]2O[C@H](SC)[C@H](O)[C@@H](O)[C@H]2O)[C@@H](C)O)N(C)C1	P93_24	0.3162	inhibitor, full curve
CCC[C@@H]1C[C@@H](C(=O)N[C@@H]([C@H]2O[C@H](SC)[C@H](O)[C@@H](O)[C@H]2O)[C@@H](C)O)N(C)C1	CP268	0.7569	inhibitor, partial curve
CCC[C@@H]1C[C@@H](C(=O)N[C@@H]([C@H]2O[C@H](SC)[C@H](O)[C@@H](O)[C@H]2O)[C@@H](C)O)N(C)C1	CP325	0.3381	inhibitor, full curve
CCC[C@@H]1C[C@@H](C(=O)N[C@@H]([C@H]2O[C@H](SC)[C@H](O)[C@@H](O)[C@H]2O)[C@@H](C)O)N(C)C1	N140	0.5012	inhibitor, full curve
CCC[C@@H]1C[C@@H](C(=O)N[C@@H]([C@H]2O[C@H](SC)[C@H](O)[C@@H](O)[C@H]2O)[C@@H](C)O)N(C)C1	ICS	0.3548	inhibitor, full curve, poor fit
CCC[C@@H]1C[C@@H](C(=O)N[C@@H]([C@H]2O[C@H](SC)[C@H](O)[C@@H](O)[C@H]2O)[C@@H](C)O)N(C)C1	CP238	0.4467	inhibitor, full curve
CCC[C@@H]1C[C@@H](C(=O)N[C@@H]([C@H]2O[C@H](SC)[C@H](O)[C@@H](O)[C@H]2O)[C@@H](C)O)N(C)C1	AA1029	0.3548	inhibitor, full curve
CCC[C@@H]1C[C@@H](C(=O)N[C@@H]([C@H]2O[C@H](SC)[C@H](O)[C@@H](O)[C@H]2O)[C@@H](C)O)N(C)C1	CP247	1	inhibitor, full curve, poor fit
CCC[C@@H]1C[C@@H](C(=O)N[C@@H]([C@H]2O[C@H](SC)[C@H](O)[C@@H](O)[C@H]2O)[C@@H](C)O)N(C)C1	CP286	0.1778	inhibitor, full curve
CCC[C@@H]1C[C@@H](C(=O)N[C@@H]([C@H]2O[C@H](SC)[C@H](O)[C@@H](O)[C@H]2O)[C@@H](C)O)N(C)C1	CP217	0.631	inhibitor, full curve
CCC[C@@H]1C[C@@H](C(=O)N[C@@H]([C@H]2O[C@H](SC)[C@H](O)[C@@H](O)[C@H]2O)[C@@H](C)O)N(C)C1	DIV14	1.51	inhibitor, partial curve, poor fit
CCC[C@@H]1C[C@@H](C(=O)N[C@@H]([C@H]2O[C@H](SC)[C@H](O)[C@@H](O)[C@H]2O)[C@@H](C)O)N(C)C1	CP291	0.2393	inhibitor, full curve
CCC[C@@H]1C[C@@H](C(=O)N[C@@H]([C@H]2O[C@H](SC)[C@H](O)[C@@H](O)[C@H]2O)[C@@H](C)O)N(C)C1	CP194	0.8492	inhibitor, full curve
CCC[C@@H]1C[C@@H](C(=O)N[C@@H]([C@H]2O[C@H](SC)[C@H](O)[C@@H](O)[C@H]2O)[C@@H](C)O)N(C)C1	ECU	1	inhibitor, full curve
CCC[C@@H]1C[C@@H](C(=O)N[C@@H]([C@H]2O[C@H](SC)[C@H](O)[C@@H](O)[C@H]2O)[C@@H](C)O)N(C)C1	CP265	0.8913	inhibitor, full curve, poor fit
CCC[C@@H]1C[C@@H](C(=O)N[C@@H]([C@H]2O[C@H](SC)[C@H](O)[C@@H](O)[C@H]2O)[C@@H](C)O)N(C)C1	TAB109	0.1995	inhibitor, full curve
CCC[C@@H]1C[C@@H](C(=O)N[C@@H]([C@H]2O[C@H](SC)[C@H](O)[C@@H](O)[C@H]2O)[C@@H](C)O)N(C)C1	DFO2036	0.1995	inhibitor, full curve
CCC[C@@H]1C[C@@H](C(=O)N[C@@H]([C@H]2O[C@H](SC)[C@H](O)[C@@H](O)[C@H]2O)[C@@H](C)O)N(C)C1	CP252	0.2512	inhibitor, full curve
CCC[C@@H]1C[C@@H](C(=O)N[C@@H]([C@H]2O[C@H](SC)[C@H](O)[C@@H](O)[C@H]2O)[C@@H](C)O)N(C)C1	DIV17	4.776	inhibitor, partial curve, poor fit
CCC[C@@H]1C[C@@H](C(=O)N[C@@H]([C@H]2O[C@H](SC)[C@H](O)[C@@H](O)[C@H]2O)[C@@H](C)O)N(C)C1	CP203	0.6012	inhibitor, full curve
CCC[C@@H]1C[C@@H](C(=O)N[C@@H]([C@H]2O[C@H](SC)[C@H](O)[C@@H](O)[C@H]2O)[C@@H](C)O)N(C)C1	CP185	0.4467	inhibitor, full curve
CCC[C@@H]1C[C@@H](C(=O)N[C@@H]([C@H]2O[C@H](SC)[C@H](O)[C@@H](O)[C@H]2O)[C@@H](C)O)N(C)C1	CP329	0.6746	inhibitor, full curve
CCC[C@@H]1C[C@@H](C(=O)N[C@@H]([C@H]2O[C@H](SC)[C@H](O)[C@@H](O)[C@H]2O)[C@@H](C)O)N(C)C1	SC27B	1.778	inhibitor, full curve
CCC[C@@H]1C[C@@H](C(=O)N[C@@H]([C@H]2O[C@H](SC)[C@H](O)[C@@H](O)[C@H]2O)[C@@H](C)O)N(C)C1	CP192	1.51	inhibitor, partial curve
CCC[C@@H]1C[C@@H](C(=O)N[C@@H]([C@H]2O[C@H](SC)[C@H](O)[C@@H](O)[C@H]2O)[C@@H](C)O)N(C)C1	TAB165	0.1585	inhibitor, full curve
CCC[C@@H]1C[C@@H](C(=O)N[C@@H]([C@H]2O[C@H](SC)[C@H](O)[C@@H](O)[C@H]2O)[C@@H](C)O)N(C)C1	C2A	0.8913	inhibitor, full curve
CCC[C@@H]1C[C@@H](C(=O)N[C@@H]([C@H]2O[C@H](SC)[C@H](O)[C@@H](O)[C@H]2O)[C@@H](C)O)N(C)C1	P94_40	0.2239	inhibitor, full curve
CCC[C@@H]1C[C@@H](C(=O)N[C@@H]([C@H]2O[C@H](SC)[C@H](O)[C@@H](O)[C@H]2O)[C@@H](C)O)N(C)C1	CP266	0.6746	inhibitor, full curve
CCC[C@@H]1C[C@@H](C(=O)N[C@@H]([C@H]2O[C@H](SC)[C@H](O)[C@@H](O)[C@H]2O)[C@@H](C)O)N(C)C1	CP315	1.694	inhibitor, full curve
CCC[C@@H]1C[C@@H](C(=O)N[C@@H]([C@H]2O[C@H](SC)[C@H](O)[C@@H](O)[C@H]2O)[C@@H](C)O)N(C)C1	ATS95	0.8913	inhibitor, partial curve

The first 3 entries again:

| SMILES | condition | fitted potency (µM) | remark |
|---|---|---|---|
| `CCCCCCCCCCCC(CC1OC(=O)C1CCCCCC)OC(=O)C(CC(C)C)NC=O` (stereo not drawn) | CP269 | 0.4775 | inhibitor, partial curve, poor fit |
| `CCCCCCCCCCCC(CC1OC(=O)C1CCCCCC)OC(=O)C(CC(C)C)NC=O` (stereo not drawn) | CP325 | 0.4256 | inhibitor, partial curve, poor fit |
| `CNCCC(Oc1ccccc1C)c1ccccc1` (stereo not drawn) | P93_24 | 14.13 | inhibitor, partial curve, poor fit |